# According to PubChem BioAssay AID624297 (National Center for Advancing Translational Sciences (NCATS), 2012):
# The campaign covered roughly 340,000 compounds. About 6,200 (1.8%) were called active. This list was built around the results that the source calls inconclusive (neither active nor inactive); the mix of calls is not that of the screen. Calls follow the shape of the dose curve; as a rule, active = well fitted activation curve with a large enough effect; inconclusive = small, poorly fitted or top-dose-only effect; inactive = no such curve, though single readings can be large or run the other way. A potency beside an inconclusive call is a rough fit, not a confirmed value.
# Test: A quantitative high throughput screen for small molecules that induce DNA re-replication in SW480 colon adenocarcinoma cells. Also: nearly all actives have a fitted effect of over 55% in size. As to re-replication activation: % of control where 0% means no effect.
# Conditions: Hoechst DNA content imaging, 48 h; re-replication activation: at 46.1 µM (top of the series) unless noted
# In short: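 Hoechst fluorescence of nuclei (405 nm excitation, 500-530 nm emission) measured by plate-scanning imager after 48 hr compound exposure at 37 C; re-replication scored as increased number of nuclei with elevated intensity.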
# Potency is read from the fitted curve at half-maximal effect.
Compound,Potency,re-replication activation
C=CCc1cccc(/C=N/NC(=O)c2ccccc2Br)c1O,"inconclusive: 3.66 µM [activator, full curve, poor fit]",–
COc1ccc(-c2n[nH]c(C)c2-c2ccccc2OC)c(O)c1,"inconclusive: 1.84 µM [activator, single point]",–
CC(C)(C)c1ccc(C(=O)O)c(C(=O)c2ccc(C(=O)O)cc2)c1,"inconclusive: 29.1 µM [activator, single point]",–
O=c1c2[nH]c3cccc(Cl)c3c2ncn1Cc1ccco1,"inconclusive: 25.9 µM [activator, single point]",–
O=C(NCc1ccccc1)C1CCN(S(=O)(=O)c2cc([N+](=O)[O-])ccc2Cl)CC1,"inconclusive: 32.6 µM [activator, partial curve, poor fit]",–
Cc1cc(NC(=O)c2cccc(S(=O)(=O)N(C)C)c2)n(-c2ccccn2)n1,–,inactive: 19.9%
CCOC(=O)c1sc(Nc2nc3ccc(OC)cc3s2)cc1C,"inconclusive: 20.6 µM [activator, single point]",–
Cc1cc(C(=O)O[C@H]2[C@H](Cc3ccccc3)NS(=O)(=O)[C@H]3C[C@@H]4C=C[C@]23O4)ccc1[N+](=O)[O-],–,inactive: -11.5%
Cn1c(-c2ccc(F)cc2)cnc1NCc1ccccc1,"inconclusive: 29.1 µM [activator, single point]",–
COc1ccc(C2CC(O)(c3ccccc3)Oc3cc(OC)ccc32)cc1 (stereo unspecified),"inconclusive: 16.4 µM [activator, single point]",–
CCOC(=O)c1sc2nc(N3CCOCC3)c3c(c2c1N)CCC3,–,inactive: -2.15%
COc1ccc(CC(=O)NCC(C)(C)N2CCOCC2)cc1,–,inactive: -1.99%
CS(=O)(=O)N(CC(=O)NCc1ccc2c(c1)OCO2)Cc1ccccc1,"inconclusive: 29.1 µM [activator, single point]",–
CN(C)[C@@H]1C(=O)C(C(N)=O)=C(O)[C@@]2(O)C(=O)C3=C(O)c4c(O)ccc(Cl)c4[C@@H](O)[C@H]3C[C@@H]12,"inconclusive: 20.6 µM [activator, single point]",–
Cc1onc(-c2c(F)cccc2Cl)c1C(=O)OCC(=O)N1C(C)CCCC1C (stereo unspecified),"inconclusive: 18.4 µM [activator, single point]",–
Cc1cccc(C(=O)Oc2ccc3ccc(O)cc3c2)c1,"inconclusive: 18.4 µM [activator, partial curve, poor fit]",–
Cc1cc(NC(=O)c2ccccc2F)on1,active: 20.6 µM,–
O=C(NC(C(=O)N/N=C/c1cc([N+](=O)[O-])ccc1O)c1n[nH]c(=O)c2ccccc12)c1ccccc1 (stereo unspecified),–,inactive: 1.41%
O=C(Nc1nc2cc3c(cc2s1)OCCO3)c1ccco1,"inconclusive: 29.1 µM [activator, single point]",–
Cc1nn(-c2ccccc2)c(C)c1/C=N/n1c(-c2ccccc2Br)n[nH]c1=S,"inconclusive: 0.291 µM [activator, full curve, poor fit]",–
COc1ccc2cc(S(=O)(=O)N3CCCCC3)ccc2c1S(=O)(=O)N1CCCCC1,"inconclusive: 29.1 µM [activator, single point]",–

# Arranged by SMILES length (smallest number first): some entries from above.
Compound,Potency,re-replication activation
CCOC(=O)c1sc2nc(N3CCOCC3)c3c(c2c1N)CCC3,–,inactive: -2.15%
COc1ccc2cc(S(=O)(=O)N3CCCCC3)ccc2c1S(=O)(=O)N1CCCCC1,"inconclusive: 29.1 µM [activator, single point]",–
O=C(NCc1ccccc1)C1CCN(S(=O)(=O)c2cc([N+](=O)[O-])ccc2Cl)CC1,"inconclusive: 32.6 µM [activator, partial curve, poor fit]",–

# (further entries)

Compound,Potency,re-replication activation
Cc1ccc(C(=O)NCC(=O)NCC(=O)OCC(=O)c2ccc(F)cc2)cc1,"inconclusive: 29.1 µM [activator, partial curve, poor fit]",–
N#CCCn1cc(C(=O)N2CCCCC2)c(-c2ccc([N+](=O)[O-])cc2)n1,"inconclusive: 23.1 µM [activator, single point]",–
CC(NC(=O)CCCCCNC(=O)N1CCn2c1nc1ccccc12)c1ccccc1 (stereo unspecified),"inconclusive: 29.1 µM [activator, single point]",–
Cc1ccc(OCC(=O)c2cc(C)n(Cc3ccco3)c2C)c([N+](=O)[O-])n1,"inconclusive: 29.1 µM [activator, single point]",–
COc1ccc(N2CCN(c3ncnc4scc(-c5ccc(C)cc5)c34)CC2)cc1,"inconclusive: 20.6 µM [activator, single point]",–
Cc1ccc2nc(Nc3ccccc3)c(/C=N/O)c(=O)n2c1,"inconclusive: 29.1 µM [activator, single point]",–
Cc1c(C)[n+](=O)c2c(n1[O-])C(Br)CCC2Br (stereo unspecified),"inconclusive: 29.1 µM [activator, partial curve, poor fit]",–
O=c1c(/C=N\NS(=O)(=O)c2ccccc2)coc2ccc(Cl)cc12,–,inactive: -2.29%
Cc1ccc2nc(N3CC(C)OC(C)C3)nc(-c3ccccc3)c2c1 (stereo unspecified),"inconclusive: 18.4 µM [activator, single point]",–
Cc1ccnc(NC(=O)CCC(=O)N(CC(=O)NC2CCCCC2)Cc2ccccc2)c1,–,inactive: 1.83%
COc1cc(/C=C/c2[nH]c(=O)[nH]c(=O)c2[N+](=O)[O-])ccc1OCCC(C)C,"inconclusive: 29.1 µM [activator, single point]",–
CSc1ccc(C(=O)C2CCCN(C(=O)CCc3c(C)nn(C)c3C)C2)cc1 (stereo unspecified),–,inactive: -4.32%
Cc1cc(C)c(C)c(S(=O)(=O)N2CCC(C(=O)NNC(=O)c3ccccc3O)CC2)c1C,"inconclusive: 14.6 µM [activator, partial curve, poor fit]",–
Cc1ccc2cc(C#N)c(NCc3ccco3)nc2c1,"inconclusive: 29.1 µM [activator, single point]",–
O=C1CC(c2ccc(Cl)cc2)n2nc(N3C(=O)CCC3=O)nc2N1 (stereo unspecified),"inconclusive: 29.1 µM [activator, partial curve, poor fit]",–
CSc1nc2ccccc2cc1/C=C(\C#N)c1cccc(Cl)c1,"inconclusive: 29.1 µM [activator, single point]",–
COc1cccc(OC)c1OCCCN1CCOCC1,–,inactive: -3.5%
CCOc1ccc2oc(C(=O)OCC(=O)NC3CCCCC3)c(C)c2c1,–,inactive: -6.44%
CC(C)(C)C(=O)NC(=S)NNC(=O)c1ccncc1,"inconclusive: 20.6 µM [activator, partial curve, poor fit]",–
Cc1cccc(-c2nc3c(c(SCC(=O)N4CCOCC4)n2)CCCC3)c1,"inconclusive: 14.6 µM [activator, single point]",–
